Measured values taken from article PMC6297349, “The ASCIZ-DYNLL1 axis promotes 53BP1-dependent non-homologous end joining and PARP inhibitor sensitivity” (Nature Communications, 2018).
These are yes or no findings as the source states them, for the method shown. In cells and extracts the contact can be indirect.

The chains behind the UniProt entries cited, without tags or fusion partners. Where a name states a change or a piece, a line headed by the entry shows the natural chain unless it says otherwise.
UniProt Q12888: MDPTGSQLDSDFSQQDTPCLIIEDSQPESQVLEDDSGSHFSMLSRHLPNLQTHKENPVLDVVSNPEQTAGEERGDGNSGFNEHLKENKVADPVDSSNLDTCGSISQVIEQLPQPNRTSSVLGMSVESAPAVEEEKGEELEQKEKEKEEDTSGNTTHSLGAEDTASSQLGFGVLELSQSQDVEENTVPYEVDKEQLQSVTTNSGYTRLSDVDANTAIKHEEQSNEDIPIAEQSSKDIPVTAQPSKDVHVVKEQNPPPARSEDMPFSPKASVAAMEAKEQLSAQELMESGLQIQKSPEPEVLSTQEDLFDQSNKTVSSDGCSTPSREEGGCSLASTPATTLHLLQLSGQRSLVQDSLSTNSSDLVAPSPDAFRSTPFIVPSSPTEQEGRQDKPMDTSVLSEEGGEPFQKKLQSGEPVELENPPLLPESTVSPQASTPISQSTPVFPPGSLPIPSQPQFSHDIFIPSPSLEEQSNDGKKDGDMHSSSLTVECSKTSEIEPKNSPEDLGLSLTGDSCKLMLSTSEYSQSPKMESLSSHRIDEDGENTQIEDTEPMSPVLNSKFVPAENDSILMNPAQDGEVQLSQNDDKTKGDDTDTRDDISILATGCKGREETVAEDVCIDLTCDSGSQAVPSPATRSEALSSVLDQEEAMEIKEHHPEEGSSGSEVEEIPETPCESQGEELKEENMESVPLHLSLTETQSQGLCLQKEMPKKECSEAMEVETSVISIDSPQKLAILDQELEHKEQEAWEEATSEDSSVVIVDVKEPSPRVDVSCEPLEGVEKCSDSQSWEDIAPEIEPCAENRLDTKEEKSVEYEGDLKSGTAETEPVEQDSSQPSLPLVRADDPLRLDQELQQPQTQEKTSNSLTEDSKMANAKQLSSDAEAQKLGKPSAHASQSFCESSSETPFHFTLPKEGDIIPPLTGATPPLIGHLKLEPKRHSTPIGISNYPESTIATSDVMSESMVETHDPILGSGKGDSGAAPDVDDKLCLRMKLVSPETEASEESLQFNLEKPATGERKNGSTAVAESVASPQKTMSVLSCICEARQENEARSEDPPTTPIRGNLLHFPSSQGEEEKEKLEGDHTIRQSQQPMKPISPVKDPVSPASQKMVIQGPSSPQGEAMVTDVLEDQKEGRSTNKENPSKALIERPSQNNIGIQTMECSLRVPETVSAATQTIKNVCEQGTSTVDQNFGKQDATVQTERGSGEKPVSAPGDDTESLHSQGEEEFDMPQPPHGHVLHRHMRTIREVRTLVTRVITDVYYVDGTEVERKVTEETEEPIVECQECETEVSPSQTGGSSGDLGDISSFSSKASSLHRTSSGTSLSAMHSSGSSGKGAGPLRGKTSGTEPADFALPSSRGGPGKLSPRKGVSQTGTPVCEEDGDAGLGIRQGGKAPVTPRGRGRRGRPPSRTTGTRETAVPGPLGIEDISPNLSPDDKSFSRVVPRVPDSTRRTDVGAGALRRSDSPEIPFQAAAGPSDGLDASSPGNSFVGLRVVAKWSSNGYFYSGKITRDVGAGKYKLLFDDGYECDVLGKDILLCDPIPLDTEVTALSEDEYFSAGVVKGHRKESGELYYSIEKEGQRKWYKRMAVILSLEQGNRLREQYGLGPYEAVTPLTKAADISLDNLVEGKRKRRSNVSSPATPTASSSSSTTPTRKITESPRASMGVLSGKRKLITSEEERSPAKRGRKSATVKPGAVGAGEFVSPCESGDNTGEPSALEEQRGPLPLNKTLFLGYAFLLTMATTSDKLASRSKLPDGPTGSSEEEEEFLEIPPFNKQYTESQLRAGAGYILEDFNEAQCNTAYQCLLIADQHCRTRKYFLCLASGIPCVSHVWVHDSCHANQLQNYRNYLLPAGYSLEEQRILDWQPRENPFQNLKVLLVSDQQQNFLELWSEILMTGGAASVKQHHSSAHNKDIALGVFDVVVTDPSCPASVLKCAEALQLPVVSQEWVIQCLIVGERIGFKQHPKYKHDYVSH
UniProt P63167: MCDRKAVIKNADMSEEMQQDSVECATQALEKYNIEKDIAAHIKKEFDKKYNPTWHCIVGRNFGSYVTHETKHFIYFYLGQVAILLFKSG

Molecular target: FLAG-HA-tagged 53BP1^LC8m (LC8-motif mutant 53BP1) (UniProt Q12888)
Assay: co-IP; FLAG-HA-53BP1 immuno-complexes on anti-FLAG M2 magnetic beads from HEK 293T whole cell extracts 48 h after transfection, untreated or irradiated (10 Gy, 1 h); bound at 150 mM KCl, washed at 100 mM KCl, eluted with 3x FLAG peptide; blotted for DYNLL1

binding: no binding
Substance: dynein light chain 1 (DYNLL1), endogenous (from UniProt P63167 1-89)
